PubChem BioAssay AID652272, Drosophila RNAi Screening Center, 2013

Screen: 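Genes whose knock-down decreases or increases Hedgehog reporter output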 (primary screen)
Cell system: Drosophila clone 8 (Cl8) cells
Knock-down reagent: long dsRNA against Drosophila genes
Read-out: 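Firefly light from a Hedgehog-responsive ptc promoter reporter and Renilla reference light, both read on a plate reader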
Reading the numbers: firefly Hh reporter signal: higher = more ptc reporter light; Renilla reference signal: higher = more Renilla control light
Hit rule: 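Called a hit if the two-replicate mean z-score lies below -2 or above +3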
Meaning of the calls: active = hit: reporter lowered or raised; inactive = not a hit
The screen tested about 21,000 reagents; below is an unselected part of those that have a named target and a result. In the full data, 503 (2.4%) are marked active. 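Raw plate light values, not normalised; calls rest on replicate z-scores that were not deposited; hits include reporter decreases as well as increases.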 Reagents against one gene are numbered here. The record does not give: the amount of reagent, the time to read-out.

gene knocked down	dsRNA no.	firefly Hh reporter signal, replicate 1	firefly Hh reporter signal, replicate 2	firefly Hh reporter signal, replicate 3	Renilla reference signal, replicate 1	Renilla reference signal, replicate 2	Outcome
lncRNA:CR42646	1	1.06e5	2.18e5		2290	8932	inactive
RpL37-1	1	3.64e5	1.19e5	2.65e5	5254	4406	active
Or1a	1	1.07e5	2.00e5		3664	8917	inactive
Osi23	1	1.20e5	1.04e5		4531	3017	inactive
CG3309	1	55313	1.62e5		1443	7268	inactive
Slc25A46a	1	1.06e5	1.08e5		2666	2763	inactive
Ir60d	1	1.18e5	78251		1665	7141	inactive
N	1	1.18e5	2.64e5		4201	9493	inactive
CG13060	1	1.35e5			7510	4020	inactive
CG13921	1	1.78e5	1.20e5		8236	4963	inactive
Cpr50Ca	1	1.36e5	3.36e5		11828	12657	inactive
Cpr50Ca	2	1.12e5	67754		3032	4768	inactive
Cpr50Ca	3	98597	64464		2299	4917	inactive
eya	1	1.10e5	80176		4152	2353	inactive
CG15550	1	76262	1.17e5		2620	3313	inactive
Spn88Ea	1	99947	70841		3584	2304	inactive
alka	1	58518	38505		1537	3243	inactive
CG18178	1	74027	69401		3232	2786	inactive
Atg10	1	97347	75364		2176	5544	inactive
CG11629	1	75173	37840		2058	3923	inactive
CG42514	1	66972	56228		2967	2217	inactive
fbp	1	1.75e5	1.12e5		6890	5019	inactive
GstD2	1	81382	94848		2588	2662	inactive
CG14650	1	1.87e5	1.25e5		8032	4513	inactive
CG5783	1	1.23e5	64508		3114	5193	inactive
spz	1	94920	78979		2300	2513	inactive
Josd	1	59392	2.09e5		2290	7350	inactive
Fibp	1	76630	71472		3485	3197	inactive
Rrp45	1	44649	1.41e5		999	5785	inactive
Su(var)2-10	1	84416	42144		2933	1046	inactive
CG7519	1	70747	1.01e5		2214	2400	inactive
CG13362	1	91520	2.00e5		3211	6528	inactive
TotF	1	73715	54544		1125	5154	inactive
CG17329	1	1.04e5	69321		2762	6244	inactive
CG13239	1	75442	1.07e5		2490	2808	inactive
CG8420	1	69987	70564		2536	2428	inactive
mas	1	1.22e5	76339		4843	3389	inactive
mtt	1	58745	1.35e5		1765	8362	active
mtt	2	92188	2.58e5		1972	9832	inactive
mtt	3	1.24e5	44198		2968	3952	inactive
mtt	4	1.16e5	58916		2877	4659	inactive

6 entries already listed, arranged by “Renilla reference signal, replicate 2”, low to high:
gene knocked down	dsRNA no.	firefly Hh reporter signal, replicate 1	firefly Hh reporter signal, replicate 2	firefly Hh reporter signal, replicate 3	Renilla reference signal, replicate 1	Renilla reference signal, replicate 2	Outcome
Slc25A46a	1	1.06e5	1.08e5		2666	2763	inactive
Osi23	1	1.20e5	1.04e5		4531	3017	inactive
RpL37-1	1	3.64e5	1.19e5	2.65e5	5254	4406	active
CG3309	1	55313	1.62e5		1443	7268	inactive
Or1a	1	1.07e5	2.00e5		3664	8917	inactive
lncRNA:CR42646	1	1.06e5	2.18e5		2290	8932	inactive
